Test results reported in patent US9429568B2, “Silaanthracene as a red and near infrared sensor and a method to manufacture such a sensor” (Board of Trustees of Southern Illinois University on Behalf …, priority 2010, dated 2016).

Assay: Hypochlorous acid (HOCl) sensor: fluorescence and absorbance response to added HOCl
Format: physicochemical
Conditions: 0.5 μM compound
Method: A solution of compound 3 from Table 2 herein was formed at a concentration of 0.5 μM and at a pH of 7.4. HOCl was added to the solution at concentrations ranging up to 2 μM and the fluorescence of the resulting solutions was measured after exposure to an excitatory light pulse of 655 nm.
A solution of compound 29 from Table 5 herein was formed at a concentration of 0.5 μM and at a pH of 7.4. HOCl was added to the solution at concentrations ranging up to 5 μM and the fluorescence of the resulting solutions was measured after exposure to an excitatory light pulse of 580 nm.

SMILES: C[Si]1(C)c2cc(O)ccc2C2(c3ccccc3C(=O)N2CCN2CCNCCNCCNCC2)c2ccc(O)cc21 [Compound 29]
- intensity of fluorescence at 605 nm and 570 nm as a function of HOCl concentration (pH 7.4, HOCl up to 5 μM): linear relationship

SMILES: CN(C)c1ccc2c(c1)[Si](C)(C)c1cc(N(C)C)ccc1C21SCc2ccccc21 [Compound 3]
- intensity of fluorescence at 663 nm as a function of HOCl concentration (pH 7.4, HOCl up to 2 μM, excitation 655 nm): linear relationship
